# Experimental data: PubChem BioAssay AID1347426 (Functional Genomics Laboratory (NCATS/FGL), 2020)
# About 1,400 (4.5%) of roughly 31,000 sequences were called active.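 The calls were made as follows: active = median seed-adjusted z-score above 1 or below -1; inactive = the rest.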 The list shows a part of the results.
# Assay: Novel Modifiers of Survival Motor Neuron (SMN) Protein: Gene Identification via Genome-wide siRNA Screen;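 also: luminescence tracks full-length SMN protein made from the SMN2 reporter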
# Conditions: HEK293T SMN2-luciferase reporter, siRNA knockdown, 72 h; actives lie on both sides
# How it was run: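 Luciferase signal, proportional to full-length SMN made from an SMN2 cDNA reporter in stable HEK293T cells, was read 72 h after siRNA reverse transfection. Values were expressed as MAD scores after non-targeting-control normalization and log10 conversion; seed analysis flagged off-targets.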
row,Sequence,median seed-adjusted z-score
1,GGAUGAUUUAGAAUUGUCATT against ATP6V0C,inactive: -0.389
2,GCACUUCCGAGUGAAGUUUTT against PIK3CD,inactive: 0.00831
3,GACACUUCCUAUUCAGAAUTT against FECH,inactive: 0.135
4,AGCUUUAUCUACUCCCUGATT against FSD1,inactive: 0.685
5,CCAGGGAUGUUAGUCUGUATT against CACNA1C,inactive: 0
6,GCCUCAAAGUAUUCAGCAATT against STARD13,inactive: -0.0337
7,GGCCCAUAUUCAUCUGCUATT against STYX,inactive: 0.694
8,GCAGGUGUCUGGACGAAAATT against CHST7,inactive: 0
9,CAGUUAUCAUUGGUGGUAATT against PYGL,inactive: 0.166
10,ACAUCGUCCGCUUCUAUGATT against WNK4,inactive: 0.385
11,GUGUGGUCAUUCAACUUGATT against ZNF324B,inactive: 0.176
12,ACAACGCACCAAAAUAUCATT against FBXO45,inactive: -0.043
13,ACCAGUACAUCAUCGCGAATT against FOXL2,inactive: -0.166
14,GUGUUCGAGCUGAUACAUATT against HCN1,inactive: -0.107
15,CAACGAAUCUUGAUGACAUTT against HEL308,inactive: 0.229
16,AGCCUUUAAUCAUUUCUCATT against ZNF85,active: -1.01
17,GCUCCCAUCAUGUACGUUUTT against GPR155,inactive: 0.0681
18,GAAAGUAUAUAUUGGUGAATT against PIP4K2C,inactive: 0.27
19,GCAUGCAAAUAGCAUAGAATT against SLC4A8,inactive: -0.474
20,CUACCACAGUUGCUUCUUUTT against HCRTR1,inactive: 0.739
21,AGUUUGAACAGAUUCGGAATT against KCNJ15,inactive: 0.0332
22,GCACAAAUGUCACCGUCAATT against RDH14,inactive: 0.0287

row,Sequence,median seed-adjusted z-score
1,GGAAGUCUCUUGUCUGCAATT against RNASEL,inactive: 0
2,GGAUUUGAGGGAAAACGCATT against FMO2,inactive: -0.265
3,GGAAGACCAUUGAUUGCAATT against CLPB,inactive: -0.985
4,GAAUUUCAACCAGUACUAUTT against ACSBG2,inactive: 0.027
5,GAAAUCUUCUUGAGUGUAATT against GPR141,inactive: -0.777
6,CAGUCAAGCGGACCACAAATT against CHRM2,inactive: 0.053
7,ACAAAUACGUGGAAAAGAATT against CENTB5,inactive: 0.183
8,UCUACUUCCAAGAAUUUAATT against SCNN1B,inactive: 0.585
9,GCACUACAUUGACCUGAAATT against NME2,inactive: -0.0728
10,CCCAUGCUGUCUACGGCAATT against GPR173,inactive: -0.147
11,CUCUGUGAAUGGUGCCGAATT against FAM57A,inactive: 0.0434
12,GAGUGAAGAUGAGUUGACATT against XRCC6,inactive: 0
13,GGUGUUAUCAGAAUUCCGATT against CARS,inactive: 0
14,CCCUUAAACUCGAACCCAATT against HLX,inactive: 0.379
15,GGUUUUUCCGCCAACUAGATT against CAPS,active: -1.25
16,GAAAAGGAUUGUAAGAUAATT against SULT1E1,inactive: 0.509
17,GAAUGGAAACGAUUGUCUUTT against PCMTD2,inactive: -0.0765
18,GAACUGAGUUAAUUGGGAATT against SELL,inactive: 0.554
19,GGAGGAGUCUUUAAAGAGATT against LPO,inactive: 0.201
20,GGAUUCCGAGAGUGCCUAATT against HEY2,inactive: -0.0831
21,CACGGGAUAUGGAACGAAATT against CXCR7,inactive: -0.511
22,UCCGCAUCCUAGUCUCUAUTT against LTC4S,inactive: 0

row,Sequence,median seed-adjusted z-score
1,GGUCCUUCAUGCACGUCAATT against DUSP3,inactive: -0.00768
2,CCCUCUCCGUGCAAAUGCATT against CHRNA4,inactive: 0.174
3,GGAGAUUCUAGUAUACAGATT against PTPN2,inactive: 0.302
4,CUACCGAAAUGUCUUCCAUTT against SLC25A35,inactive: -0.762
5,CCCUUGCCUCAGCAUCUGATT against SPRY3,inactive: -0.126
6,GGUGGACUUCUAUGCCUUATT against TTC16,inactive: 0
7,GGCCUUCAAUUGAAGAAGUTT against TSSK3,inactive: -0.381
8,GAAUCAAGACAAACCCGAATT against TTN,inactive: 0.872
9,CCAUGAGGUGCAUAUCUAUTT against ARPC1B,inactive: 0
10,CCACUCUCAUUGUGACUGATT against DDX54,inactive: 0
11,GGAUUCUAUUUAUUAUGCUTT against CDKN2D,inactive: -0.455
12,AAAAACCCGUUGUUCUAAATT against CYP3A4,inactive: 0.633
13,GAGUGAGAGCUGUAGAAAATT against CREB3,inactive: 0.0509
14,GGUGAUUCAAGAUGCCCAATT against PXMP2,inactive: -0.444
15,CCUCACUUCCUGACCAUAATT against F5,inactive: -0.127
16,GCAUGUCAGGAUUAGCCGATT against BMP4,inactive: -0.612
17,CGUCCAAGAUCGAACCCAUTT against HIRA,inactive: 0.286
18,GCAUUGGGAUGUACUUGUATT against LRP12,inactive: 0.416
19,CCAAGACCGAAAGCACAGATT against NUDT4,inactive: -0.0306
20,GCCGUUACCAUGGAACUUUTT against GSPT2,inactive: 0.846
21,GAAGUGUUUGAAUCUCGUATT against AKAP3,inactive: 0.0138
22,CCUUCACUCCGGUCAAGUATT against FARSA,inactive: -0.158

# Part of the list above, set out differently:
row | Sequence | median seed-adjusted z-score
1 | GGUCCUUCAUGCACGUCAATT against DUSP3 | inactive: -0.00768
2 | CCCUCUCCGUGCAAAUGCATT against CHRNA4 | inactive: 0.174
5 | CCCUUGCCUCAGCAUCUGATT against SPRY3 | inactive: -0.126
10 | CCACUCUCAUUGUGACUGATT against DDX54 | inactive: 0
17 | CGUCCAAGAUCGAACCCAUTT against HIRA | inactive: 0.286
22 | CCUUCACUCCGGUCAAGUATT against FARSA | inactive: -0.158

# (listing goes on)

row,Sequence,median seed-adjusted z-score
1,GCAAGACCUUUGACUACAATT against SSRP1,inactive: -0.31
2,GGUCUAUGAUUGACAAGUATT against NRD1,inactive: 0.0825
3,GGCCAAUGGCUGAUGGUGATT against HSPB9,inactive: 0.262
4,AGAAUAAGUUCAAACAGGATT against RAB4B,inactive: -0.207
5,CCAUGAUUGGGAUCUCUGUTT against AQP6,inactive: 0.008
6,GCCUACCUCUAUAUCCGAATT against SNRNP200,inactive: 0.889
7,GCGUGGAAGCUUCUAUUUATT against WTIP,inactive: 0.222
8,CAUCGGCUUCGGUGACUUUTT against KCNK5,inactive: 0
9,GGGACAUGCUUUGGAAGAATT against KHDRBS3,inactive: 0.0681
10,GACUUGAAUGGAACGGUGATT against IKBKB,inactive: 0.0896
11,CCAUGGGAAUCCAAUCUGUTT against PTTG1,inactive: -0.459
12,AAUUCAUCGUUAUGUGGAATT against AP1S2,inactive: -0.323
13,CGACUAUUGUUGAAGUUAATT against HSPA13,inactive: 0
14,GCUUUACACUGGGACGAAATT against NOX3,inactive: 0.04
15,GUGCUGAACUUCUACCGAATT against KCND1,inactive: -0.359
16,CCUGAACCCUUACCGGAAATT against SETD2,inactive: -0.0192
17,AACUGGAAAUUAUACAAAATT against NDUFA4,inactive: 0
18,CCAUAGCGGCAACCAAGAATT against MGAT4A,inactive: 0.134
19,GAAGCAUGUAUAUUACCUATT against SLC19A3,inactive: -0.0232
20,GUUCCACUUUAAACACUCATT against FEZF1,inactive: 0.155
21,CAGUGAAAAGUGACGCGGATT against DZIP1,inactive: -0.138
22,CCACGCUGGAGAUCCUUAATT against FES,inactive: 0.402

row,Sequence,median seed-adjusted z-score
1,UGAUCUUUGUCGGCAUUAATT against CYCS,inactive: -0.679
2,GAAUAUUGCAAUAGACUUATT against ZNF678,inactive: 0.172
3,GACCUGGGCAGAUUCCAAATT against MMP9,active: -1.15
4,GAACAACACGACCAACAGATT against PRKD2,inactive: 0.00493
5,GGAGCAGUAUUGACAACAATT against NUFIP1,inactive: -0.673
6,AGAUCACAAGAGAACUUGUTT against AP1S2,inactive: -0.323
7,GGACUGCGAAGAACUCCUATT against VAV3,inactive: 0
8,CAAAGAACCUAUCCGCUUATT against GGA2,inactive: -0.142
9,GUGCUACAAUUGUACAGUATT against CREM,active: -2.37
10,AGACUGCAAUGAACGUGAATT against RAB5C,inactive: -0.529
11,GCACGGCUCUAUCUCAUCATT against TRIM56,inactive: -0.452
12,GGUGAUCAUUUAUAACAGATT against HS2ST1,inactive: 0.421
13,CCGGAAAUUUGGGACGCAATT against DHX58,inactive: -0.302
14,GCCUUACUCGUGCAGCGAATT against ZNF672,inactive: 0.35
15,CGAAGUCAACAAUACCAUUTT against PEPD,inactive: -0.00401
16,GAGAAUGACUGGUGGGUUUTT against ARPC1B,inactive: 0
17,GCAAUUUUGACAAUGCUAATT against SYTL3,inactive: 0.236
18,GGACAAUCCUUGGUUCUGUTT against LRIT3,inactive: 0.0324
19,GUCAAAAUGUUCUACAUUATT against LECT2,inactive: 0.0371
20,CCUCCUCGAUGCCUACAAATT against DIO2,inactive: -0.549
